Experimental data: PubChem BioAssay AID504378 (National Center for Advancing Translational Sciences (NCATS), 2011)
The inconclusive results got no clear call from the source. Potencies of inconclusive entries are doubtful fits and often do not repeat.

Assay: qHTS Assay for Compounds Blocking the Interaction Between CBF-beta and RUNX1 for the Treatment of Acute Myeloid Leukemia: SAR for Probe with Orthogonal Assay
Details: ME-1 cells viability, ATPlite luminescence, 48 h; active = well fitted curve in the direction sought with a large enough effect; inconclusive = small, poorly fitted or top-dose-only effect, or another doubt; inactive = no such curve, though single readings can be large or run the other way
Excerpt: NIH Chemical Genomics Center [NCGC] NIH Molecular Libraries Probe Production centers Network [MLPCN] MLPCN Grant: X01MH083259-01 Assay Submitter (PI): Paul Liu NCGC Assay Overview: Core Binding Factor (CBF) abnormalities are associated with 20-25% of all acute myeloid leukemias (AML), of which 5-10% are further sub classified as acute myelomonocytic leukemia with eosinophilia, also known as M4Eo in the FAB classification scheme. This subtype of leukemia is usually associated with chromosome 16 inversion (p13:q22). Chromosome 16 inversion results in formation of the fusion oncogene CBFB-MYH11, which encodes the fusion protein CBF-beta-SMMHC. […] It has been hypothesized that the interference of CBF-beta and RUNX1 binding could have therapeutic implications for patients with CBF mediated leukemias. We developed a CBF-beta and RUNX1 binding assay in AlphaScreenTM format and optimized it for high throughput screening to search for inhibitors. The goal of this project is to screen MLPCN's compound collection (MLSMR) for identifying the inhibitors of the interaction between CBF-beta and RUNX1 proteins as research probes. If these probes work well in the animal models, the ultimate goal of this project is to development a new drug treatment for this disease. This assay can not be used to assess how apparent inhibitors interfere with protein binding, and whether inhibitors specifically bind to either protein. Disruption of this protein-protein interaction, through any mechanism, is the intended target activity. The present data set was run to confirm the activity of hits from the primary screen using an orthogonal assay technology for measuring protein-protein interaction disruption.
NCGC Assay protocol: ME-1 suspension cells were grown in T225 flasks to 80% density under a standard cell culture condition (ATCC) using Dulbecco's Modified Eagle Medium (DMEM) + 10% fetal bovine serum, harvested in OPTI-MEM (phenol free) + 10% FBS. Seeded at 500 cells/well in 5uL medium into 1536-well white solid-bottom plates using Multidrop Combi dispenser, and incubated the plates at 37 C with 5% CO2 and 95% humidity for 2 hours prior to pinning compound. Subsequently, 23 nL/well compound solutions or DMSO controls were dispensed to the assay plates via a pintool workstation. Plates were then transferred to 37 C with 5% CO2 and 95% humidity for 48 hours, and then ATP content was measured following the addition of 4uL/well of ATPlite reagent and a 20 min incubation on a ViewLux plate reader. Keywords: MLSMR, MLPCN, NIH Roadmap, qHTS, NCGC, Core binding factor, CBF, CBF-beta, Acute myeloid leukemia
For `CCN(CC)CCN1C(=O)CN=C(c2ccccn2)c2cc(Cl)ccc21`, the Potency was inconclusive: 24.4 nM [inhibitor, partial curve, poor fit]. With `CCN(CC)CCN1C(=O)CN=C(c2ccc[nH]2)c2cc(Cl)ccc21` the Potency was inconclusive: 1540 nM [inhibitor, full curve]. With `CN1C(=O)CN=C(c2ccc[nH]2)c2cc(Cl)ccc21` (tested in a mixture with another compound) the Potency was inconclusive: 122 nM [inhibitor, partial curve, poor fit]. With `O=C1CN=C(c2ccc[nH]2)c2cc(Cl)ccc2N1` the Potency was inconclusive: 8650 nM [inhibitor, partial curve].
